Results are given in words; binding and its absence hold for the method and conditions named. In cells and extracts the contact can be indirect. Here binding means that the protein was enriched with, or labelled near, the bait; the list need not be complete.

Protein sequences, listed by entry. Tags and fused reporters are not part of them.
UniProt Q80TZ9: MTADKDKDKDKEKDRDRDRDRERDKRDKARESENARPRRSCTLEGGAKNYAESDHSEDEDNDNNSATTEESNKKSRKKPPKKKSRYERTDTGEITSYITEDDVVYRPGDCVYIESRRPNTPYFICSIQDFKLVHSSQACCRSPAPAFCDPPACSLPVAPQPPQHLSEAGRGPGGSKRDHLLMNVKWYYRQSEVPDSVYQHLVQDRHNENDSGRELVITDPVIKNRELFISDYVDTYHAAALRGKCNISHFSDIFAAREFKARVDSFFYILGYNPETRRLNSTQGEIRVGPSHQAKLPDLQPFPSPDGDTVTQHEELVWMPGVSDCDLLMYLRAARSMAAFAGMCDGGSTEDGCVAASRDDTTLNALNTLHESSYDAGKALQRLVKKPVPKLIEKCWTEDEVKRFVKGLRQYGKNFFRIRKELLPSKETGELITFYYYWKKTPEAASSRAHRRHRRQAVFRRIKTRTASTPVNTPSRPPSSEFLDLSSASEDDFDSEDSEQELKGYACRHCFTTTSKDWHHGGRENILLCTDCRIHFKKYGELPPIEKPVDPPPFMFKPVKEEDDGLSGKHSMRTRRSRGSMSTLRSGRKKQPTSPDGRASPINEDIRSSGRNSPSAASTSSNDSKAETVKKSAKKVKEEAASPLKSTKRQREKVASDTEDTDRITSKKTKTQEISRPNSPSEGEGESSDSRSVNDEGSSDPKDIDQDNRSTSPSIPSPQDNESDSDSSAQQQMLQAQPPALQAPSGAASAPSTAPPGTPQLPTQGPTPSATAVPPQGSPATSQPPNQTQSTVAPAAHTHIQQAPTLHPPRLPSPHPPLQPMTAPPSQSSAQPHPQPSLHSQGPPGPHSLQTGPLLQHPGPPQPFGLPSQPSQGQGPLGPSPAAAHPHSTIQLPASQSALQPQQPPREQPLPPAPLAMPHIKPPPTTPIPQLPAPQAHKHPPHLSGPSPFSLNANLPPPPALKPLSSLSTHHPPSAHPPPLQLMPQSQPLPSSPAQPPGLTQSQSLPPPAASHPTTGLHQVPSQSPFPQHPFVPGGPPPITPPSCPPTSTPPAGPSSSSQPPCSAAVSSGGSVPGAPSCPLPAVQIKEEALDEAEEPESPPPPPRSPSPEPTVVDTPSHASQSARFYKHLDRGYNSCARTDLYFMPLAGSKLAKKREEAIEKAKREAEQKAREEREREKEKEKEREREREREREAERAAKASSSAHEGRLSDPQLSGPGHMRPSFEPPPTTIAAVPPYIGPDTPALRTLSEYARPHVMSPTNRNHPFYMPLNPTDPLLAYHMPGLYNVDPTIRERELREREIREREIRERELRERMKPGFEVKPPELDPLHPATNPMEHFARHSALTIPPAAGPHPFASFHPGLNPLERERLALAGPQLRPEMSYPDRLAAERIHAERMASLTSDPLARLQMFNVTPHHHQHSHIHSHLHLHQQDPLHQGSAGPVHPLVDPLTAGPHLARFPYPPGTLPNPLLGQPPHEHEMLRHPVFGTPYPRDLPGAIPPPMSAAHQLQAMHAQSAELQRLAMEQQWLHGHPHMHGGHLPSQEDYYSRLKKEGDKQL
UniProt Q9Z148: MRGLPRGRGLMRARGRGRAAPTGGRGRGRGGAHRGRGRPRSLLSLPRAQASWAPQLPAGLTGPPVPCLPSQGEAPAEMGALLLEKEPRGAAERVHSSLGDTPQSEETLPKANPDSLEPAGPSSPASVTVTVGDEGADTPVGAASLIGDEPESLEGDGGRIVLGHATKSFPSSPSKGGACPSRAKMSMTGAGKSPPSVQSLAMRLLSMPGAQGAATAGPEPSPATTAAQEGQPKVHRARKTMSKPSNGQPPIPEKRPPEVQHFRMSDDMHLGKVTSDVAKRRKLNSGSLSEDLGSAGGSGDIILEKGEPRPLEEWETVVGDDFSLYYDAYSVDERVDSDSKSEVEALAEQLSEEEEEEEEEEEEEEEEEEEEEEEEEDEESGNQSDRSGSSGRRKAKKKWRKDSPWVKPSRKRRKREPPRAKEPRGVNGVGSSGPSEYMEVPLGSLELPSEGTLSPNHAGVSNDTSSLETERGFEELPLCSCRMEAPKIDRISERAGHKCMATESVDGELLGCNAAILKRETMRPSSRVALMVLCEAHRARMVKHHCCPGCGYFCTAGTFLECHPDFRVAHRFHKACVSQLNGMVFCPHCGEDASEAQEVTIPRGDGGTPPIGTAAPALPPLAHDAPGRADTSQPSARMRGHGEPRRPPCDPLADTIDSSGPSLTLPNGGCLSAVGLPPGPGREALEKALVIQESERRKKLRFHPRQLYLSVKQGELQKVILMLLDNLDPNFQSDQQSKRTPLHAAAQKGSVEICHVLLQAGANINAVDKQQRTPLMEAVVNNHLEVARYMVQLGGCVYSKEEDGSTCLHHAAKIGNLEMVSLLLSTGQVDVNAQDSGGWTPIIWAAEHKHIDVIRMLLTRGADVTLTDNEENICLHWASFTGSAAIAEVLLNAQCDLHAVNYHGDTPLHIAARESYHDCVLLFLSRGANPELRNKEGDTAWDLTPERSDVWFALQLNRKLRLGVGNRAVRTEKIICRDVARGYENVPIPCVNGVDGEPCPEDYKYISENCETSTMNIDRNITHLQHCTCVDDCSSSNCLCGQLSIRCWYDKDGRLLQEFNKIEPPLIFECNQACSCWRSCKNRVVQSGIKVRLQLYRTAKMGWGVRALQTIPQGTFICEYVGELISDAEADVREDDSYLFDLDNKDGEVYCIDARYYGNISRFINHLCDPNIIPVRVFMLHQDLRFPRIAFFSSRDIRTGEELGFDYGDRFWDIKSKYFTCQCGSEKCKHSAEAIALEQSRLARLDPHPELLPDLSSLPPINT
UniProt P70288: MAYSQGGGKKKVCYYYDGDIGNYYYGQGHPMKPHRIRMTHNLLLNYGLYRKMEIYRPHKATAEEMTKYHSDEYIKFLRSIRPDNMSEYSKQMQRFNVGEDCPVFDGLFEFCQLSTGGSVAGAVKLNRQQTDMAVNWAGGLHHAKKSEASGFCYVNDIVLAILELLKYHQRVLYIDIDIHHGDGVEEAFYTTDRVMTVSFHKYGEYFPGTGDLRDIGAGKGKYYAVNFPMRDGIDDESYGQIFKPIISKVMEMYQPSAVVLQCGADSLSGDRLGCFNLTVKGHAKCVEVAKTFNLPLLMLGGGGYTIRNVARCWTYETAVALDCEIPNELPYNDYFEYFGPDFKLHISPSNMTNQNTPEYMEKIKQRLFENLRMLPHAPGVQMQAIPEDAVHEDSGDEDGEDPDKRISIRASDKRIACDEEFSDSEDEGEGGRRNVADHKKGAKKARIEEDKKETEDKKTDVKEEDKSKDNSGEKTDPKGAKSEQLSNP
UniProt O09106: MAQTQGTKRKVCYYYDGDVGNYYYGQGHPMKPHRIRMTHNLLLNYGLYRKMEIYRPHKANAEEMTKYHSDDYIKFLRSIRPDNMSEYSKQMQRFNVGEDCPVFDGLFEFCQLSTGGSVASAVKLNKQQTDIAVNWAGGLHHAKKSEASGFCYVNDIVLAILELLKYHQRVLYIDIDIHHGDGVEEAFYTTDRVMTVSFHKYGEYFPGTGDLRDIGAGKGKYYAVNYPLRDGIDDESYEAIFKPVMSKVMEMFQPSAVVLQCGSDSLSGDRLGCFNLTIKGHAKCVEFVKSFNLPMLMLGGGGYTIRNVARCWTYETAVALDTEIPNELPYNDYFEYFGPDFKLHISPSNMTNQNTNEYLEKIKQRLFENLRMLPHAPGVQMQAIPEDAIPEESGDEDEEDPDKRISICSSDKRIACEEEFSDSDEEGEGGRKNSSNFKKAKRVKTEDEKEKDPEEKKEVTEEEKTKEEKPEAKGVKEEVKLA

In this test the target is Rere-HA (mouse) (UniProt Q80TZ9). The experiment in a line: affinity purification with mass spectrometry; anti-HA affinity purification (Sigma or Roche antibody) from whole cell extracts of E10.5 RS-Rere-HA;T-Cre mouse embryos; low salt (150 mM NaCl) or high salt (300 mM NaCl); HA peptide and SDS elution; MudPIT; wild-type embryos as negative control.
For the substance “Ehmt2 (endogenous, mouse embryo) (from UniProt Q9Z148 1-1263)”, the binding result is “binds”.

For the substance “Hdac2 (endogenous, mouse embryo) (from UniProt P70288 1-488)”, the binding entry was “binds”.

Regarding “Hdac1 (endogenous, mouse embryo) (from UniProt O09106 1-482)”, the binding entry was “binds”.

Values taken from PMC5620087.
